Reference: patent US7465729B2, “Methods of treatment of menopause and perimenopause using eszopiclone” (Sepracor Inc., priority 2004, dated 2008)
Some of these results come from one statement about several compounds together.

Tested on: conscious dogs
Assay: Dose escalation safety study, cardiovascular and respiratory parameters
Conditions: intravenous, highest dose 12 mg/kg
Description: To establish the safety of eszopiclone, a dose escalation study was carried out. Cardiovascular and respiratory parameters were evaluated in conscious dogs following acute intravenous administration of (R)-, (S)- or racemic zopiclone at three doses (3, 5 and 12 mg/kg).

Structure (SMILES) | hypotensive effect, decrease from baseline
CN1CCN(C(=O)O[C@H]2c3nccnc3C(=O)N2c2ccc(Cl)cn2)CC1 [Eszopiclone, (+)6-(5-chloropyrid-2-yl)-5-(4-methylpiperazin-1-yl)carbonyloxy-7-oxo-6,7-dihydro-5H-pyrrolo[3-4-b]pyrazine] | 30-40%
CN1CCN(C(=O)OC2c3nccnc3C(=O)N2c2ccc(Cl)cn2)CC1 (racemic) [racemic zopiclone] | 30-40%
